Primary screen of a compound library

Amino acid sequences for entries named in this document (tags omitted).
UniProt E9BF75, entry or part of it: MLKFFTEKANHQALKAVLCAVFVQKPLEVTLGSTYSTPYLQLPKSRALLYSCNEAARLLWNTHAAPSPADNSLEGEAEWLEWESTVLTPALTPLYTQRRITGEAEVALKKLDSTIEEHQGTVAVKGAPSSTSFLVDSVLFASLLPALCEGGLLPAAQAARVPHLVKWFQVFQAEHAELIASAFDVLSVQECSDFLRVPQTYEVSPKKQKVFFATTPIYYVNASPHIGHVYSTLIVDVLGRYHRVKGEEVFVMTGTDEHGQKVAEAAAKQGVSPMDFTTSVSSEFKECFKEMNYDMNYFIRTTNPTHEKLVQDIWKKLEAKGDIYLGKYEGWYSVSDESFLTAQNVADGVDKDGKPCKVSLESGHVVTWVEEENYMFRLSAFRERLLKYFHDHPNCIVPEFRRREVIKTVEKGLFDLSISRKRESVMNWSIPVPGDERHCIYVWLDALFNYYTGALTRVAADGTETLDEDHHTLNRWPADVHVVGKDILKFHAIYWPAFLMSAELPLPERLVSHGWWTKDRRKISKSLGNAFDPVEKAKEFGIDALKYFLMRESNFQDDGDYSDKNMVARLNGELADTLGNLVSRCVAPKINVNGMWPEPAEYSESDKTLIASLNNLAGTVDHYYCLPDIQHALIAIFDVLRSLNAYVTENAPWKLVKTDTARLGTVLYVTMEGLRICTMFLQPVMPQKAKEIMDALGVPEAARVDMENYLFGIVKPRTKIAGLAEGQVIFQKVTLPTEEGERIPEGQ

LdMetRS: 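Methionyl-tRNA synthetase (putative), Leishmania donovani (UniProt E9BF75). Primary screen of methionyl-tRNA synthetase; the read-out is not stated. The test concentration is not given. The values are filed as inhibition. Size under these conditions: about 68,000 compounds, about 24 of them at 50% or above in at least one test.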
Mtb heat-shock: 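Assay on Mycobacterium tuberculosis, filed only as a heat shock assay from Cornell; the read-out is not stated. The concentration is filed as 10 mM, unlikely as a test dose, so the dose is not known. Direction is inferred from retests: higher values go with stronger inhibition. Of about 69,000 compounds tested this way, about 930 (1.4%) reached 50% or more in at least one test.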

All values are in %. The controls that fix the scale are not given in the record; negative values are as filed. The compounds are a random part of those screened. A dash means the value is not listed here; it may have been measured.

SMILES	LdMetRS	Mtb heat-shock
COCC(=O)N1CCC2(CCC2NS(=O)(=O)c2ccccc2)CC1 (stereo not shown)	8.333%	-19.48%
O=C(O)C(F)(F)F.[H][C@]12CCN(S(=O)(=O)C3CC3)[C@@]1([H])CCC(=O)N2CCN1CCCC1	-	22.08%
CN(C)[C@H]1C[C@@H](Cc2cc(-c3ccc(F)cc3)on2)C1(C)C	5.263%	-47.78%
Cc1cc(N2CCN(C(=O)C(C)n3ccnc3C(C)C)CC2)cc(C)n1 (stereo not shown)	20.5%	-58.3%
Cc1cc(C)n(C2CN(c3nc(-c4ccncc4)nc4c3CCC4)C2)n1	17.42%	-15.55%
Cc1ccc(CN[C@@H]2COC[C@H]2c2ccc(F)cc2)cc1C	10.64%	-
CN(C)CCOc1cc(NC(=O)COCC(F)(F)F)ccn1	16.43%	4.334%
NCC1(c2cccc(Br)c2)CCOCC1	10.48%	-
Cc1ccsc1C(=O)NCC1COCc2c(C)nnn2C1 (stereo not shown)	3.226%	-5.405%
O=C1CC2(CCNCC2)C(=O)N1c1cccc(F)c1	3.922%	-
CCOCCC(=O)N(CCC#N)c1ccc(C)c(C)c1	7.542%	-4.855%
CCc1nc(C)sc1CN1C[C@@H](C)[C@@](C)(O)C1	9.91%	11.46%
CC(=O)N1CCOCC2(CCCNC2)C1 (stereo not shown)	9.444%	-2.538%
COCCN(Cc1nccs1)C(=O)c1c(C)cc(C)[nH]c1=O	3.495%	-16.39%
Cn1ccnc1CN1CCC2(CC1)COCCN(S(C)(=O)=O)C2.O=C(O)C(F)(F)F	-	17.11%
Cc1csc(CNc2cccc(OCCN3CCCC3)c2)n1	10.84%	-1.544%
CCc1cnc(CN2CCC(N(C)Cc3noc(C4CC4)n3)C2)o1 (stereo not shown)	1.742%	2.122%
CCC(CC)NC(=O)CN1CCN(C(=O)N(C)C)CC1	8.333%	-8.281%
O=C1CCCN1Cc1nnn2c1CN(c1ncccn1)CCC2	19.57%	2.637%
Cn1nnnc1SCc1cc2c(cc1Cl)OCO2	10.21%	-1.472%
O=C(O)C(F)(F)F.[H][C@@]12CN(CCO)C[C@@]1([H])N(Cc1cccc(C)c1)C(=O)CO2	-	-10.41%
CN(Cc1ccccc1)C(=O)CN1CCCCC1Cn1cncn1 (stereo not shown)	15.53%	-18.12%
Cc1ccn(CCNc2ncnc3c2CCN(S(C)(=O)=O)CC3)n1	4.902%	-3.259%
CCc1cc(CNC(=O)N2Cc3ccccc3N(C)CC2C)on1 (stereo not shown)	12.32%	8.648%
Cl.Cl.O=C(CN1CCN(CC(O)C2CC2)CC1)NCc1ccccc1Cl (stereo not shown)	-	-7.65%
Cc1cccc(CN2CCC3(CC2)CC(c2cccnc2)C(=O)N3C)n1 (stereo not shown)	7.104%	-
CCN1C(=O)CCCC12CCCN(C(=O)c1ccoc1C)C2 (stereo not shown)	15.69%	-16.32%
CC(NC(=O)c1cc2n(n1)CCCN(C)C2)c1cn2ncsc2n1 (stereo not shown)	13.06%	-15.78%
O=C(NCCO)Nc1cccc(Cl)c1SC(F)F	2.655%	-6.693%
O=C(c1ccc(-n2cccc2)c(F)c1)N1CCCN2CCCC2C1 (stereo not shown)	8.333%	-6.967%
COc1cccc(CN2CCc3nc4ccsc4c(=O)n3CC2)c1	5.825%	-
CC(c1nc(C(C)(C)C)no1)N1CCN(CC(=O)N2CCOCC2)CC1 (stereo not shown)	10.56%	6.944%
COc1cc(C(C)=O)ccc1OCC(=O)N(C)Cc1cnn(C)c1	10.24%	5.608%
CN1CCN(CCC(F)(F)C(F)F)CC12CCNC(=O)CC2 (stereo not shown)	1.907%	2.082%
COC(=O)c1ccc(CN(C)C(=O)c2cnsn2)cc1	8.732%	18.84%
CC(C)Nc1cc(N2CCCC3(CN(C)C(=O)O3)C2)ncn1 (stereo not shown)	8.992%	-18.51%
CC1CCN(C(=O)c2ccn(COc3ccccc3)n2)CC1	1.256%	-13.11%
O=C(Cc1c(F)cccc1Cl)Nc1cccc(N2CCCC2)c1	11.02%	11.19%
Cn1cnc(S(=O)(=O)N2CCCc3cccc(F)c32)c1Cl	8.488%	-0.9097%
Cn1cnnc1S(=O)(=O)C1CCN(S(=O)(=O)c2ccc(F)c(Cl)c2)CC1	9.36%	-7.749%
O=C(O)CN1CCC(F)(F)C2(CCN(c3ccccn3)C2)C1 (stereo not shown)	0.3484%	-
CCn1c(C)cc(C(=O)N2CCCC(C(=O)c3nccn3C)C2)c1C (stereo not shown)	6.25%	13.11%

For reference, 5 entries once more:

| SMILES | LdMetRS | Mtb heat-shock |
|---|---|---|
| `NCC1(c2cccc(Br)c2)CCOCC1` | 10.48% | - |
| `CCOCCC(=O)N(CCC#N)c1ccc(C)c(C)c1` | 7.542% | -4.855% |
| `COc1cccc(CN2CCc3nc4ccsc4c(=O)n3CC2)c1` | 5.825% | - |
| `CC(c1nc(C(C)(C)C)no1)N1CCN(CC(=O)N2CCOCC2)CC1` (stereo not shown) | 10.56% | 6.944% |
| `CC(C)Nc1cc(N2CCCC3(CN(C)C(=O)O3)C2)ncn1` (stereo not shown) | 8.992% | -18.51% |

Measurements from “University of Dundee, Small-Polar-MMV Screening Library” (2021), ChEMBL document CHEMBL3988442.